# Measured values: patent US20090117126A1
# These are yes or no findings as the source states them, for the method shown. Some results given as binding are weak or reduced against the parent protein; the word gives no strength.
# T1: recombinant human IL-17 (human) (UniProt Q16552)
# T1 sequence (looked up): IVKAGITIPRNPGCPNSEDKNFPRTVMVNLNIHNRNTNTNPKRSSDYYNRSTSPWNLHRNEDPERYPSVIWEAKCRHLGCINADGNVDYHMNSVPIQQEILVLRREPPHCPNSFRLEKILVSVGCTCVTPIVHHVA
# Target: T1, recombinant human IL-17 (human)
# Experiment: ELISA, primary screen of hybridomas
binder,measurement,value
"murine monoclonal antibody IL-17F4.100 (antibody, V domains shown) VH: QVQLKESGPGLVAPSQSLSITCTVSGFSLTTYGVHWIRQPPGKGLEWLVVIWSDGYTTYNSALKSRLSITKDNSKSQVFLKMNSLQTDDTAMYYCARNDGDYFYSMDYWGQGTSVTVSS VL: DVVMTQTPLSLPVSLGDQASFSCRSSQSLVHSNGNTYLHWYLQKPGQSPKLLIYKVSNRFSGVPDRFSGSGSGTDFTLKISRVEAEDLGVYFCSQSTHVPTFGGGTKLEIKR",binding,binds
